The record followed here is US20090321255A1, “Drug-meter: Multiwell membrane-based potentiometric sensor for high throughput tests of drugs” (priority 2008, published 2009).

This data set can be described thus: Transmembrane potential calibration of multiwell biomimetic membrane sensor in buffer. The format is physicochemical. From the text: Multiwell plates used were commercial Millipore MultiScreen VM 0.05μ plates with nitrocellulose ultrafilters located at the base of each of the 96 wells of a plate. Though the number of the wells in the examples given in the disclosure is 96, as it is in the usual multiwell plates, it is not limited by this number and can be any from 2 and above.
All filters were impregnated by isopropyl myristate or some other lipid-like substances, like long chain fatty acids, their methyl and ethyl-esters, fats, etc. After impregnation the membranes should be translucent.
Each well requires as little as 200 μl of test solution. The small well's volume and the numerous wells (96) make the plates highly suitable as a part of the drug sensor, both for pharmaceutical testing in a buffer as well as for testing in biological fluids.
The tray cover can be is used as a base tray to put the reference buffer solution. Two Ag/AgCl electrodes with the salt bridges were used to measure transmembrane potential with common multimeter. It is possible to use one Ag/AgCl element as a measuring electrode and move it from one well to another. Another option is to have different measuring electrodes in different wells and separately to collect signals from each of them separately.
Kinetics of the process was registered with electrochemical station GPES. 5 mM Potassium Dihydrogen Phosphate solution in water was used as a buffer, filling the tray with the volume ˜30 ml. Known concentration of a drug (usually near 10^−5 M) could be added in the buffer as the reference. Membrane resistance after impregnation was several megaohms and usually decreases after modification of the membrane with drugs. Resistance is much lower when the membrane is broken. In this case the measurements can be conducted in other wells with the same test solution.

SMILES strings stand for the structures. Structures can show the parent of a compound that is named as a salt.

For `CC(C)NCC(O)COc1cccc2ccccc12` (stereo not shown) [Propranolol Hydrochloride], for the setting “buffer, concentrations higher than 10^−4 M”, the “slope of transmembrane potential versus Log (concentration)” value was ~58 mV per ten times concentration changes.

With `CCNC(C)Cc1cccc(C(F)(F)F)c1.Cl` (racemic) [Fenfluramine Hydrochloride, (+/−)-N-ethyl-α-methyl-m-(trifluoromethyl) phenethylamine HCl], the “slope of calibration curve” value reads like this: (buffer pH 4) 36.1 mV; (buffer pH 7.4) 48.9 mV; (buffer pH 8) 56.4 mV per decade.
